Data as given in PubChem BioAssay AID1259254 (NCATS, 2017)

Test: 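Genome-wide screen for genes that prevent DNA re-replication in cancer cells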 (primary screen)
Cells: human HCT116 colorectal cancer cells
Reagents: single siRNA against human genes
Timing: 3 days
Measured: 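Imaged Hoechst DNA stain sorts each cell into a cycle phase by DNA amount; per plate, G2 fraction set to 0% for non-targeting and 100% for GMNN siRNA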
Direction: G2 robust z-score: higher = more G2 cells, more excess DNA replication
Active means: 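Active siRNAs have a G2 robust z of 5 or more median absolute deviations over the median, which in these data means about 38% or higher of GMNN control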
The whole screen tested about 59,000 reagents; below is an unselected part. About 1,550 of all reagents (2.6%) were called active. 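G2 share is only a proxy for re-replication; each gene was hit by three separate siRNAs, and active genes were retested.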 A number with no mark means an inactive call. Further read-outs or replicates are left out here. The record does not give: the amount of reagent.

Depletion of CDCA7 [SID160751481] came out at: G2 robust z-score -0.0628.
After knock-down of CDCA7 [SID160751482] the results were G2 robust z-score 3.61.
After knock-down of CDCA7 [SID160751484], the record shows G2 robust z-score -1.05.
Against CNST [SID160760082] the deposit lists G2 robust z-score 0.147.
Knock-down of CNST [SID160760083] resulted in: G2 robust z-score -0.886.
With knock-down of CNST [SID160760084] the results were G2 robust z-score 0.388.
Silencing of TMEM105 [SID160763205] came out at: G2 robust z-score -0.348.
With knock-down of TMEM105 [SID160763206], the screen gave G2 robust z-score 2.19.
For TMEM105 [SID160763207], the values are G2 robust z-score 1.22.
After knock-down of NCR2 [SID160722199], the record shows G2 robust z-score 0.675.
NCR2 [SID160722200] scored G2 robust z-score 0.936.
For NCR2 [SID160722201], the values are G2 robust z-score -0.165.
DNAH1 [SID160737387] gave G2 robust z-score -0.842.
Against DNAH1 [SID160737388], the entry reads G2 robust z-score 0.281.
DNAH1 [SID160737389] showed G2 robust z-score 0.102.
TRIML2 [SID160761199] showed G2 robust z-score -0.438.
With knock-down of TRIML2 [SID160761200], the screen gave G2 robust z-score -0.434.
Depletion of TRIML2 [SID160761202] came out at: G2 robust z-score 0.801.
Depletion of CORO1C [SID160736661] gave: G2 robust z-score 1.99.
For CORO1C [SID160736662], the values are G2 robust z-score -0.422.
CORO1C [SID160736663] showed G2 robust z-score -0.206.
Against KLK8 [SID160724313], the entry reads G2 robust z-score -0.52.
Knock-down of KLK8 [SID160730196] gave: G2 robust z-score -1.04.
After knock-down of KLK8 [SID160730197], the screen gave G2 robust z-score -0.62.
For SLC2A4 [SID160716814], the entry reads G2 robust z-score 5.22 (active).
SLC2A4 [SID160716815] gave G2 robust z-score -0.564.
SLC2A4 [SID160716816] showed G2 robust z-score 2.
Against WDR49 [SID160759152] the deposit lists G2 robust z-score -0.473.
After knock-down of WDR49 [SID160759153], the record shows G2 robust z-score -1.07.
With knock-down of WDR49 [SID160759154], the record shows G2 robust z-score 0.106.

2 neighbouring records already listed, for reference:
CORO1C [SID160736663]: G2 robust z-score = -0.206
KLK8 [SID160724313]: G2 robust z-score = -0.52
